From the supplement of paper PMC12819154, “High-throughput peptide-centric local stability assay extends protein–ligand identification to membrane proteins, tissues and bacteria” (Nature Structural & Molecular Biology, 2025)
Some of the results follow. Most values lie at the level of the controls, where differences are scatter.

Chains of the proteins cited; added tags and fusions are not shown. Lines headed by an entry give the natural chain unless they say otherwise; changes in a name come on top.
UniProt Q5H9F3: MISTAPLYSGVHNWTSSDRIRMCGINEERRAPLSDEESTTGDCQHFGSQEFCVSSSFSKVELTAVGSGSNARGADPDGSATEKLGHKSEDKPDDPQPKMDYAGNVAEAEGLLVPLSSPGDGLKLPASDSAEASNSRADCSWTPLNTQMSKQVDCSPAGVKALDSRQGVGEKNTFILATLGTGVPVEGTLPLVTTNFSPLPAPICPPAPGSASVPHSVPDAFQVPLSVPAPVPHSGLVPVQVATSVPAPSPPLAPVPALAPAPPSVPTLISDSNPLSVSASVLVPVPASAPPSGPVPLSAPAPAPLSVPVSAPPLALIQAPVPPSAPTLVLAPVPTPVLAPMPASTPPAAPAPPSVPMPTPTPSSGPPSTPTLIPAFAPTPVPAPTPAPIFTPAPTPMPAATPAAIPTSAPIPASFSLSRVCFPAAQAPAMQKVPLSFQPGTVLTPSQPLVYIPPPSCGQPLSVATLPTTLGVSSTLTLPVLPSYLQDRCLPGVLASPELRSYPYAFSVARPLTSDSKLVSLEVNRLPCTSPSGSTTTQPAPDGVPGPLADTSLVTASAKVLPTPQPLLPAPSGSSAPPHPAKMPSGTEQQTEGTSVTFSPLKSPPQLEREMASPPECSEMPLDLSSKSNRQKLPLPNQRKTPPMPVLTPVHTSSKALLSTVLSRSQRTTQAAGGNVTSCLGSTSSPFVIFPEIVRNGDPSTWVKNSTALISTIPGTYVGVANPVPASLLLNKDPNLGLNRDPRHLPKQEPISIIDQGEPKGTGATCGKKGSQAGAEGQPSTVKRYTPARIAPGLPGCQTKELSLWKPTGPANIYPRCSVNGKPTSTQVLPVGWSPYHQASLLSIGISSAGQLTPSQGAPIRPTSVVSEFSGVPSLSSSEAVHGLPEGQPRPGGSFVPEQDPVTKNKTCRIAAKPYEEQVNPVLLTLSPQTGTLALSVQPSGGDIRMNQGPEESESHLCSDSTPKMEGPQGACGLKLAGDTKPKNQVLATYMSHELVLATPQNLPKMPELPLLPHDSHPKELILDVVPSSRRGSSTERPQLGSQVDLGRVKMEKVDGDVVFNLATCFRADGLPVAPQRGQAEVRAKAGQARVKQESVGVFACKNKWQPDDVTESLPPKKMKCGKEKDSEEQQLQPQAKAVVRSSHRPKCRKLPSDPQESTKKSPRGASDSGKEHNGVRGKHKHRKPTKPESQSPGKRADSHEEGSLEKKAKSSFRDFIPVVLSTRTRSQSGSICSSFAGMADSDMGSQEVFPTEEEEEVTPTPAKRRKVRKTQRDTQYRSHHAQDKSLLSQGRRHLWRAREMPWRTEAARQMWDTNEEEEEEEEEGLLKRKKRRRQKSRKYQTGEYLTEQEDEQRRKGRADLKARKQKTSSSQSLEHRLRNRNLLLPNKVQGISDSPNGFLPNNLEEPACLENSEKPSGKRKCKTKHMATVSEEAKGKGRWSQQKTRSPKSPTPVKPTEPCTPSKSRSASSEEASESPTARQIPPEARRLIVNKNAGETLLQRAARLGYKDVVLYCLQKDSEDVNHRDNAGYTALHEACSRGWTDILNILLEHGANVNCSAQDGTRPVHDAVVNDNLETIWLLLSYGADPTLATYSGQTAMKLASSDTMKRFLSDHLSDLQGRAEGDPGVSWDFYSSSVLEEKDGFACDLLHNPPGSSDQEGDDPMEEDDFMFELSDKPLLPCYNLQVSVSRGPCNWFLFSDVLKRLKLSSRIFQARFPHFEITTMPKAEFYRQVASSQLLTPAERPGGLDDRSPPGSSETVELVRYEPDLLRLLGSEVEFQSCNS
UniProt Q5T7V8: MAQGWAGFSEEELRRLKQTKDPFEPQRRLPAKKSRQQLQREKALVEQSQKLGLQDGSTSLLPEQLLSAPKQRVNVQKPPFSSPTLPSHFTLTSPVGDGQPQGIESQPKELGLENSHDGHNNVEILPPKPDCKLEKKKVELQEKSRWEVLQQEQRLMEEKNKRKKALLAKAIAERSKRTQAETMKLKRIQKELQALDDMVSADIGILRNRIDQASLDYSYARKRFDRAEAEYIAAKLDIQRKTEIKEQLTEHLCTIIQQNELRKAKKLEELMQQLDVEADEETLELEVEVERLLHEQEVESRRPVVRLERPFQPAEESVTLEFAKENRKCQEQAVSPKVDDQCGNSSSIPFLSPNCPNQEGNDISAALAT
UniProt Q5SW79: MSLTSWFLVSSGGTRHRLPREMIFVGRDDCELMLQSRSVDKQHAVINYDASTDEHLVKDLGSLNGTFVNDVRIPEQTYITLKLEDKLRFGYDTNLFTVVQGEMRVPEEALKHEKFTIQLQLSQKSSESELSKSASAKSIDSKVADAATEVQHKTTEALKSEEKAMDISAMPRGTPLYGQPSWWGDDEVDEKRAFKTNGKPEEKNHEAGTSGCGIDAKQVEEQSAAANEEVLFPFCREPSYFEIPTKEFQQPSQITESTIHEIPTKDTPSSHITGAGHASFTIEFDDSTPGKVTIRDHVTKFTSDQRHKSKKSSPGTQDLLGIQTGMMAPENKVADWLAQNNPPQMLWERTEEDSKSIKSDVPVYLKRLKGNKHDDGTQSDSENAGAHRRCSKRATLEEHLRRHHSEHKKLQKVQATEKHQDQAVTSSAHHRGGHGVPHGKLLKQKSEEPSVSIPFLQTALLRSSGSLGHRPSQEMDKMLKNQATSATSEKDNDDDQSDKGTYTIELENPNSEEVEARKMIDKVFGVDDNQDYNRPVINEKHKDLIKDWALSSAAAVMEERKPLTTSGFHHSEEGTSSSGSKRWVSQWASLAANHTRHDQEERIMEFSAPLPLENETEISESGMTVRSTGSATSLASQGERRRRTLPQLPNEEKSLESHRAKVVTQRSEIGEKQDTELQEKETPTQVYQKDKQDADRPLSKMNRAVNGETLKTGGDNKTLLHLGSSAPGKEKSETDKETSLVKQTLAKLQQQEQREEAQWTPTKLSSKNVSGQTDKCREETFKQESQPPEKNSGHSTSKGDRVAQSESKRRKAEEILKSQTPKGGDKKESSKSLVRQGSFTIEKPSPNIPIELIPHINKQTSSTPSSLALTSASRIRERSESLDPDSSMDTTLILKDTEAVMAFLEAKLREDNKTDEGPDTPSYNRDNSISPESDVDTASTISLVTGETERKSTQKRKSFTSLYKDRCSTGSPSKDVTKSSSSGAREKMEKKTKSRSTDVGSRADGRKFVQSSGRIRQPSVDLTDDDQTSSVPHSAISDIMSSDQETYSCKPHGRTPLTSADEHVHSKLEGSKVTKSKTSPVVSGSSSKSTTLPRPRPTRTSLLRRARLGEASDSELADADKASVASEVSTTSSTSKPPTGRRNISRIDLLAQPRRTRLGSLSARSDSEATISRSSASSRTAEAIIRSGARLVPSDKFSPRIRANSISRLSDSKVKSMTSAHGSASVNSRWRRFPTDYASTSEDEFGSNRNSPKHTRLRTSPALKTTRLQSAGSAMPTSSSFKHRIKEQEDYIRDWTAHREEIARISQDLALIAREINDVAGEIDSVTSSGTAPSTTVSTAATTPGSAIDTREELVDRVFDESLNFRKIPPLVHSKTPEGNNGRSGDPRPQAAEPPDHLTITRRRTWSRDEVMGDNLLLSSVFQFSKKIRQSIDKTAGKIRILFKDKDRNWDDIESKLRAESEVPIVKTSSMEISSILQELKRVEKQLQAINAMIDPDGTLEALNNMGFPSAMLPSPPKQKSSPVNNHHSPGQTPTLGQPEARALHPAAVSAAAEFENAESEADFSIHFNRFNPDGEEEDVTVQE
UniProt Q53ET0: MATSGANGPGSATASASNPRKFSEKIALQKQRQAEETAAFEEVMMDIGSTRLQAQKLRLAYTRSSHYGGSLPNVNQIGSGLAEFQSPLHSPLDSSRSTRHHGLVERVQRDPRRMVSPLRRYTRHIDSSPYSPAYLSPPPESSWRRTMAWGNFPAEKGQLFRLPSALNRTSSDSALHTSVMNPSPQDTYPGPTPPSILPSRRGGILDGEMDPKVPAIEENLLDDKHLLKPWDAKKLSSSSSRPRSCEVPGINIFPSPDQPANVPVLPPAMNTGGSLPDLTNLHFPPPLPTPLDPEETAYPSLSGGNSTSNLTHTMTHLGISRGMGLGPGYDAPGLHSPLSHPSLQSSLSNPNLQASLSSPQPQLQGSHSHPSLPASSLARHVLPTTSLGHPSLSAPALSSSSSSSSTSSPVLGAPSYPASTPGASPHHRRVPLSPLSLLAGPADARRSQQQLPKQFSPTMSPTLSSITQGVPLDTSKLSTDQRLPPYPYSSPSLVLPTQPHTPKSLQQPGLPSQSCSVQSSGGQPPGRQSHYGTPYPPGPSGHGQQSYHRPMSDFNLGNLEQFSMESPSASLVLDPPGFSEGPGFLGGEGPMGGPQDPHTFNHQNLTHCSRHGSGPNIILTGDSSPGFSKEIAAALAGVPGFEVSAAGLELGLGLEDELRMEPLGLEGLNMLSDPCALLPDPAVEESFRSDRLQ
UniProt Q5JXB2: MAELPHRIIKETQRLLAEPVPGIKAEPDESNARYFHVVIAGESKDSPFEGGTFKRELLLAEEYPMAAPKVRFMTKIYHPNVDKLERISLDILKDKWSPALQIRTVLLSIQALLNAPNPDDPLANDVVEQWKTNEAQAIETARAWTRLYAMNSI
UniProt Q5T9A4: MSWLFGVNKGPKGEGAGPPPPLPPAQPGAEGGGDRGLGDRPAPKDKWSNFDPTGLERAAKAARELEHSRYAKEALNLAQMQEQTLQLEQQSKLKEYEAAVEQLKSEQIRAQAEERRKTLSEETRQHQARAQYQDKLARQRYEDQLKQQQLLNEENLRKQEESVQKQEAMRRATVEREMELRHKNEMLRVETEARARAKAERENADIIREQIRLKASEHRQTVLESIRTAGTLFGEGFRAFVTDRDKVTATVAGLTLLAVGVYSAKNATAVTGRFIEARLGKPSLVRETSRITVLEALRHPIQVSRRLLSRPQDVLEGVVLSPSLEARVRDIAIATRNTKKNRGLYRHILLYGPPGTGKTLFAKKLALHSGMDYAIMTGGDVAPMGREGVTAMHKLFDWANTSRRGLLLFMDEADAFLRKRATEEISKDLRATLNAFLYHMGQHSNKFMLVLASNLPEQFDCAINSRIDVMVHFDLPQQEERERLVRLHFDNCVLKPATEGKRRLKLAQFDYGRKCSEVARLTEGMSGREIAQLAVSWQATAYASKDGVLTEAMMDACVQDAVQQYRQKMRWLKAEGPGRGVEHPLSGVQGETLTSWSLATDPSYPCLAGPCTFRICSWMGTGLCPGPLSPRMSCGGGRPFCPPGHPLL
UniProt Q53FZ2: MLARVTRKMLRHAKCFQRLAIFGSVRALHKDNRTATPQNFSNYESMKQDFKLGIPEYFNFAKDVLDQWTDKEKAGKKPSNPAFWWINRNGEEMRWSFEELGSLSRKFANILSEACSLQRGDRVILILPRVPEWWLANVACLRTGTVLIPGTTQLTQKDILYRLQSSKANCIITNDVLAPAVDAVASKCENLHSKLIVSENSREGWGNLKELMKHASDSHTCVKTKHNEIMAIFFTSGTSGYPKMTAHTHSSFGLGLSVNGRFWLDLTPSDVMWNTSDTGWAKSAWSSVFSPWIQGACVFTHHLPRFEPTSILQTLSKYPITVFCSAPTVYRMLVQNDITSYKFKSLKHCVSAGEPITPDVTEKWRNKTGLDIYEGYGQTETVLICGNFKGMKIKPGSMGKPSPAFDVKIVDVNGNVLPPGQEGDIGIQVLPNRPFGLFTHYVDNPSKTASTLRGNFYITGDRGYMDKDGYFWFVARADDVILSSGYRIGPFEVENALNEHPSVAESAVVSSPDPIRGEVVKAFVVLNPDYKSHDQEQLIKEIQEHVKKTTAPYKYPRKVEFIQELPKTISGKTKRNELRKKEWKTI
UniProt Q5BKY9: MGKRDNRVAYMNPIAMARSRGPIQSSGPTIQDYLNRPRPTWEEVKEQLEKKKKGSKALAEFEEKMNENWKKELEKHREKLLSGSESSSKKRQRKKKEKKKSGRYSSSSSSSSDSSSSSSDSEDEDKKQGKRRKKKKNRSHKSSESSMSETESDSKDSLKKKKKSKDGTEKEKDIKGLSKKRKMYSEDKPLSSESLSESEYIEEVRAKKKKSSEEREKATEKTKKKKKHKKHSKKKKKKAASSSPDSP
UniProt Q5T6V5: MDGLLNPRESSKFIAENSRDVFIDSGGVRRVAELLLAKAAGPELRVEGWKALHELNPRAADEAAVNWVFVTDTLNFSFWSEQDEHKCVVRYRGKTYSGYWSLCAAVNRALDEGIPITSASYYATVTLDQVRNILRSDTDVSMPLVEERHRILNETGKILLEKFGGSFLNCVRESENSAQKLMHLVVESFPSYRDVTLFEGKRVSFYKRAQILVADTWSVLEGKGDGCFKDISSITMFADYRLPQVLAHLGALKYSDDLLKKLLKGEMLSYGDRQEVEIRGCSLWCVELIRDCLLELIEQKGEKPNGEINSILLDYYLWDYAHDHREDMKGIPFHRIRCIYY

Compound: Cc1nc(Nc2ncc(C(=O)Nc3c(C)cccc3Cl)s2)cc(N2CCN(CCO)CC2)n1 [dasatinib]
Assay: log2 fold change of tryptic peptide abundance, ligand vs vehicle (limited proteolysis) (log2 ratio); higher = more trypsin-susceptible (destabilized)
Conditions: ligand concentration: 5 uM; sample: K562 cleared lysate

Target | log2 fold change
BCORL1 (peptide sequence: NGDPSTWVK, peptide start residue: 696) (UniProt Q5H9F3) | 0.373
UniProt Q5T7V8 (peptide sequence: ALVEQSQK, peptide start residue: 43) | -0.388
GPAT3 (peptide sequence: DIFKEEQQK, peptide start residue: 413) (UniProt Q53EU6) | -0.257
CEP170 (peptide sequence: IPPLVHSK, peptide start residue: 1368) (UniProt Q5SW79) | -0.502
CRTC2 (peptide sequence: KLSSSSSRPR, peptide start residue: 234) (UniProt Q53ET0) | -1.21
UBE2NL (peptide sequence: IYHPNVDK, peptide start residue: 75) (UniProt Q5JXB2) | -0.173
ATAD3B (peptide sequence: KRATEEISK, peptide start residue: 419) (UniProt Q5T9A4) | -0.0632
ACSM3 (peptide sequence: SHDQEQLIK, peptide start residue: 532) (UniProt Q53FZ2) | 0.198
FAM133B (peptide sequence: LLSGSESSSK, peptide start residue: 80) (UniProt Q5BKY9) | 0.00882
C9orf64 (peptide sequence: LMHLVVESFPSYR, peptide start residue: 181) (UniProt Q5T6V5) | 0.306
IQSEC2 (peptide sequence: GVDNGEDIPR, peptide start residue: 917) (UniProt Q5JU85) | 0.587

2 neighbouring entries already listed, for reference:
Target | log2 fold change
ATAD3B (peptide sequence: KRATEEISK, peptide start residue: 419) (UniProt Q5T9A4) | -0.0632
ACSM3 (peptide sequence: SHDQEQLIK, peptide start residue: 532) (UniProt Q53FZ2) | 0.198
